{"source": "PubChem BioAssay AID1671195 (Yale University, 2021)", "assay": "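Genes whose knockdown alters LDL uptake in liver cancer cells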 (primary screen)", "system": "human Huh7 hepatoma cells", "reagent": "siRNA pool against human genes, 18 nM", "time to read-out": "about 2 to 2.5 days of knockdown, then 8 h LDL uptake", "conditions": "DiI-labelled LDL at 30 µg/ml for 8 h, in lipoprotein-deficient serum medium", "measurement": "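Per-cell DiI-LDL intensity by automated imaging; well means scaled to the plate median and given as a robust z-score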", "direction": "robust z-score: higher = more LDL uptake after knockdown", "call rule": "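a gene counts as active if at least two replicate z-scores exceed ±2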", "note": "The deposit covers about 22,000 reagents; below is a part drawn at random. Over the whole deposit, about 1,510 (6.9%) were called active. 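Active includes knockdowns raising or lowering LDL uptake; positive z-scores mean more uptake, negative mean less.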 A number with no mark means an inactive call."}
{"target": "CCDC134 (GeneID 79879)", "robust z-score, replicate 1": "2.24 (active)", "robust z-score, replicate 2": 2.54, "robust z-score, replicate 3": 2.81}
{"target": "MRPS7 (GeneID 51081)", "robust z-score, replicate 1": 0.531, "robust z-score, replicate 2": -0.0642, "robust z-score, replicate 3": -2.06}
{"target": "CAPN15 (GeneID 6650)", "robust z-score, replicate 1": -0.954, "robust z-score, replicate 2": -0.748, "robust z-score, replicate 3": -0.886}
{"target": "PICK1 (GeneID 9463)", "robust z-score, replicate 1": -0.758, "robust z-score, replicate 2": -0.0158, "robust z-score, replicate 3": -1.12}
{"target": "CHERP (GeneID 10523)", "robust z-score, replicate 1": 0.306, "robust z-score, replicate 2": 0.46, "robust z-score, replicate 3": 0.622}
{"target": "CTDP1 (GeneID 9150)", "robust z-score, replicate 1": "2.75 (active)", "robust z-score, replicate 2": 2.8, "robust z-score, replicate 3": 3.39}
{"target": "LYPLAL1 (GeneID 127018)", "robust z-score, replicate 1": -0.305, "robust z-score, replicate 2": 0.25, "robust z-score, replicate 3": 0.337}
{"target": "MARK2P21 (GeneID 497049)", "robust z-score, replicate 1": 0.341, "robust z-score, replicate 2": 0.723, "robust z-score, replicate 3": 0.353}
{"target": "TIGD2 (GeneID 166815)", "robust z-score, replicate 1": -0.143, "robust z-score, replicate 2": 0.383, "robust z-score, replicate 3": -0.253}
{"target": "BMS1 (GeneID 9790)", "robust z-score, replicate 1": 0.857, "robust z-score, replicate 2": -1.05, "robust z-score, replicate 3": 1.56}
{"target": "PIK3CG (GeneID 5294)", "robust z-score, replicate 1": -0.54, "robust z-score, replicate 2": -0.553, "robust z-score, replicate 3": -1.44}
{"target": "DEFB132 (GeneID 400830)", "robust z-score, replicate 1": -0.00155, "robust z-score, replicate 2": -0.0789, "robust z-score, replicate 3": -0.273}
